Measurements: patent US5227467 (dated 1993)
Strings that start with PEPTIDE1 are HELM notation: dots part the residues, brackets hold end groups and non-standard residues.

Experiment: general procedure: solution-phase peptide synthesis; N,N-bis(2-oxo-3-oxazolidinyl)phosphorodiamidic chloride; benzotriazol-1-yloxytri

Substance | step yield (coupling step) [%] | step yield (late stage modification step) [%] | further results
Boc-MeLeu-4-F-Val-MeLeu-Ala-OBzl | 33 | – | –
H-MeBmt-Abu-Sar-MeLeu-4-Fluoro-Val-MeLeu-AlaOBzl | – | 70.5 | –
N,O-isopropylidene-MeBmt-Abu-Sar-MeLeu-4-Fluoro-Val-MeLeu-AlaOBzl | 64 | – | –
Boc-D-Ala-MeLeu-MeLeu-MeVal-MeBmt-Abu-Sar-MeLeu-4-Fluoro-Val-MeLeu-AlaOBzl | 62.5 | – | –
PEPTIDE1{[MeBmt].[Abu].[Sar].[MeLeu].[4-fluoro-Val].[MeLeu].A.[dA].[MeLeu].[MeLeu].[MeVal]}$PEPTIDE1,PEPTIDE1,1:R1-11:R2$$$V2.0 | – | – | cyclisation yield (cyclisation step): 48.7%
H-Abu-Sar-MeLeu-4-F-Val-MeLeu-Ala-OBzl | – | 95 | –
Boc-D-Ala-MeLeu-MeLeu-MeVal-MeBmt-Abu-Sar-MeLeu-4-Fluoro-Val-MeLeu-AlaOH | – | 65.8 | –
H-D-Ala-MeLeu-MeLeu-MeVal-MeBmt-Abu-Sar-MeLeu-4-Fluoro-Val-MeLeu-AlaOH | – | 81 | –
Boc-Abu-Sar-MeLeu-4-F-Val-MeLeu-Ala-OBzl | 84 | – | –
